One substance from publication PMC11494653 (The Journal of Organic Chemistry, 2024) can be followed below.

A short description of this data set: general procedure: Fmoc solid-phase peptide synthesis; 2-chlorotrityl chloride resin (1.07 mmol/g); HCTU, 2,4,6-collidine. The settings on record: whole synthesis, scale of the general procedure 300 mg resin, 0.32 mmol total, trifluoroacetate (TFA) salt.

Take Ile4,Gln5,Lys10-teixobactin: the outcome is “we were unable to synthesize the swapmer Ile4,Gln5,Lys10-teixobactin”.
